Data as given in PubChem BioAssay AID493246 (Drosophila RNAi Screening Center, 2011).

Screen: 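Identify essential fly genes by loss of cell viability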 (primary screen)
Cells: Drosophila Kc and S2R+ cells
Reagent: long dsRNA against Drosophila genes
Measured: 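Cell number per well after knock-down, printed as raw plate values; calls were based on per-plate z-scores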
Scale: Kc cell number and S2R+ cell number: higher = more cells remaining
Active means: 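Active when the per-plate z-score of cell number is 3 or more in the direction of fewer cells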
The screen tested about 21,000 reagents; below is an unselected part of those with a known target gene and a result. In the full data, 429 (2%) got an active call. 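Values are raw and not normalised between plates; calls rest on per-plate z-scores that were not deposited.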 The record does not give: the amount of reagent, the time to read-out.

no.	gene	dsRNA	Kc cell number, rep 1	Kc cell number, rep 2	S2R+ cell number, rep 1	S2R+ cell number, rep 2	outcome
1	Tl (Toll)	DRSC16885	5.16e5		8.09e5		inactive
2	CG10702	DRSC02097	1.27e6	1.34e6	1.25e6	1.23e6	inactive
3	Idh3a (Isocitrate dehydrogenase 3a)	DRSC19446	1.60e6	1.60e6	1.10e6	1.20e6	inactive
4	mRpS10 (mitochondrial ribosomal protein S10)	DRSC15557	1.03e6	1.06e6	1.10e6	1.23e6	inactive
5	CG42694	DRSC03955	5.34e5		8.17e5		inactive
6	CG10512	DRSC11615	1.59e6	1.48e6	1.35e6	1.43e6	inactive
7	dbr (debra)	DRSC00274	1.21e6	1.01e6	6.47e5	6.47e5	inactive
8	CG6052	DRSC10574	1.29e6	1.40e6	1.24e6	1.33e6	inactive
9	dob (doppelganger von brummer)	DRSC19948	5.55e5		7.74e5		inactive
10	Rab8	DRSC11261	1.69e6	1.79e6	1.33e6	1.29e6	inactive
11	Pi3K92E (Phosphatidylinositol 3-kinase 92E)	DRSC16788	1.54e6	1.67e6	1.20e6	1.27e6	inactive
12	ATPsynepsilonL (ATP synthase, epsilon subunit-like)	DRSC14548	1.54e6	1.51e6	1.15e6	1.22e6	inactive
13	CG2076	DRSC19832	1.67e6	1.53e6	1.13e6	1.16e6	inactive
14	Brms1 (BRMS1 transcriptional repressor)	DRSC19896	1.54e6	1.45e6	9.28e5	1.00e6	inactive
15	CG15262	DRSC01975	1.65e6	1.68e6	1.34e6	1.43e6	inactive
16	sni (sniffer)	DRSC17770	5.48e5		8.46e5		inactive
17	CG5455	DRSC15805	5.05e5		7.71e5		inactive
18	CG6108 (retired record)	DRSC02929	1.60e6	1.72e6	1.23e6	1.39e6	inactive
19	CG18231	DRSC10307	1.40e6	1.55e6	1.30e6	1.42e6	inactive
20	Qsox1 (Quiescin sulfhydryl oxidase 1)	DRSC06878	1.70e6	1.80e6	1.45e6	1.52e6	inactive
21	Rap1 (Rap1 GTPase)	DRSC08686	1.34e6	1.43e6	1.20e6	1.22e6	inactive
22	WASp	DRSC15032	1.73e6	1.87e6	1.09e6	1.21e6	inactive
23	Snx3 (Sorting nexin 3)	DRSC16027	1.49e6	1.63e6	1.35e6	1.43e6	inactive
24	CG1428	DRSC03708	1.51e6	1.60e6	1.31e6	3.20e5	inactive

A stretch taken from the entries so far, as a working copy:
no.	gene	dsRNA	Kc cell number, rep 1	Kc cell number, rep 2	S2R+ cell number, rep 1	S2R+ cell number, rep 2	outcome
9	dob (doppelganger von brummer)	DRSC19948	5.55e5		7.74e5		inactive
10	Rab8	DRSC11261	1.69e6	1.79e6	1.33e6	1.29e6	inactive
